Data on one molecule can be found in publication PMC10154249, “Unique progerin C-terminal peptide ameliorates Hutchinson–Gilford progeria syndrome phenotype by rescuing BUBR1” (Nature Aging, 2023).

Sequences of proteins named here, by UniProt entry; tags and fusion partners are left off. A change or cut given only in a name is not applied to a line headed by its entry. A line that says so, or that is headed by a name, gives the form on record, which may keep a tag or linker.
Flag-progerin (HEK-293T) (P02545, form named): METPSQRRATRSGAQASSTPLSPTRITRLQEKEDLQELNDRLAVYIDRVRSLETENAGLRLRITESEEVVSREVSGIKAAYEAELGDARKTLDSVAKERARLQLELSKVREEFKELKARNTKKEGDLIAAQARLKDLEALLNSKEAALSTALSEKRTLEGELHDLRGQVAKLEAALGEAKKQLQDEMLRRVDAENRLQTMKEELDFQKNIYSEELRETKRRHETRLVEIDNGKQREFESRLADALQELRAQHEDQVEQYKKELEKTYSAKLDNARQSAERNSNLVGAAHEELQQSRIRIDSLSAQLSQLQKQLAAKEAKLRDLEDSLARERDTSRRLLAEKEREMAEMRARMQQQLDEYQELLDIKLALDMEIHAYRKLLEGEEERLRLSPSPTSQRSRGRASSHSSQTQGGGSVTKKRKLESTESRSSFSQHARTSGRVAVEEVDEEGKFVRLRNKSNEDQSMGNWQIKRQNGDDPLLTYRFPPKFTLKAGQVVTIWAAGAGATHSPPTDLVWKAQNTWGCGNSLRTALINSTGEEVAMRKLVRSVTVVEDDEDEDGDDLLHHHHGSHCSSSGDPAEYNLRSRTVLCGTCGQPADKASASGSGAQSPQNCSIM

The assay has as its target Flag-progerin (HEK-293T) (human) (UniProt P02545). The assay is described as follows: affinity purification with mass spectrometry; Flag-tagged progerin transfected into HEK-293T cells, captured on anti-Flag affinity gel 16 h at 4 °C, washed with 50 mM Tris-HCl pH 7.4, 150 mM NaCl; SDS–PAGE, LC–MS/MS.

Results are given in words; binding and its absence hold for the method and conditions named. In cells and extracts the contact can be indirect. A yes stands for co-enrichment or nearness to the bait. Other partners may have been found.

B1: lamin B2 (protein, UniProt Q03252 1-620)
chain: MSPPSPGRRREQRRPRAAATMATPLPGRAGGPATPLSPTRLSRLQEKEELRELNDRLAHYIDRVRALELENDRLLLKISEKEEVTTREVSGIKALYESELADARRVLDETARERARLQIEIGKLRAELDEVNKSAKKREGELTVAQGRVKDLESLFHRSEVELAAALSDKRGLESDVAELRAQLAKAEDGHAVAKKQLEKETLMRVDLENRCQSLQEELDFRKSVFEEEVRETRRRHERRLVEVDSSRQQEYDFKMAQALEELRSQHDEQVRLYKLELEQTYQAKLDSAKLSSDQNDKAASAAREELKEARMRLESLSYQLSGLQKQASAAEDRIRELEEAMAGERDKFRKMLDAKEQEMTEMRDVMQQQLAEYQELLDVKLALDMEINAYRKLLEGEEERLKLSPSPSSRVTVSRATSSSSGSLSATGRLGRSKRKRLEVEEPLGSGPSVLGTGTGGSGGFHLAQQASASGSVSIEEIDLEGKFVQLKNNSDKDQSLGNWRIKRQVLEGEEIAYKFTPKYILRAGQMVTVWAAGAGVAHSPPSTLVWKGQSSWGTGESFRTVLVNADGEEVAMRTVKKSSVMRENENGEEEEEEAEFGEEDLFHQQGDPRTTSRGCYVM
As to B1, the binding entry was “binds”.
